Results from US20180320217A1, “METHODS FOR SAMPLING AND MEASURING ORAL LAVAGE PROTEINS” (The Procter & Gamble Company, priority 2017, published 2018).

Tested on: proteins in oral lavage
Experiment: Abundance of proteins in human oral lavage (SomaLogic), TABLE 1
Assay type: in vivo
Settings: for Means (Original Scale) High bleeder BL / Means (Original Scale) High bleeder W4 / Means (Original Scale) Low bleeder BL: abundance in oral lavage; for Means (Original Scale) High bleeder BL: high bleeders (gingivitis); for Means (Original Scale) High bleeder BL / Means (Original Scale) Low bleeder BL: baseline; for Means (Original Scale) High bleeder W4 / Fold Change High bleeder W4 vs High bleeder BL: high bleeders; for Means (Original Scale) High bleeder W4: week 4 of investigative products; for Means (Original Scale) Low bleeder BL: low bleeders (healthy); for Fold Change High bleeder BL vs Low bleeder BL / Fold Change High bleeder W4 vs High bleeder BL: oral lavage
[1] = high bleeders vs low bleeders at baseline
[2] = week 4 of investigative products vs baseline
[3] = week 4 of treatment vs baseline
[4] = high vs low bleeders at baseline

Molecule | Means (Original Scale) High bleeder BL | Means (Original Scale) High bleeder W4 | Means (Original Scale) Low bleeder BL | Fold Change High bleeder BL vs Low bleeder BL [1] | Fold Change High bleeder W4 vs High bleeder BL [2] | Fold Change High bleeder W4 vs High bleeder BL [3] | Fold Change High bleeder BL vs Low bleeder BL [4]
Brevican core protein (protein, UniProt Q96GW7 23-911, looked up) Brevican core protein: DVLEGDSSEDRAFRVRIAGDAPLQGVLGGALTIPCHVHYLRPPPSRRAVLGSPRVKWTFLSRGREAEVLVARGVRVKVNEAYRFRVALPAYPASLTDVSLALSELRPNDSGIYRCEVQHGIDDSSDAVEVKVKGVVFLYREGSARYAFSFSGAQEACARIGAHIATPEQLYAAYLGGYEQCDAGWLSDQTVRYPIQTPREACYGDMDGFPGVRNYGVVDPDDLYDVYCYAEDLNGELFLGDPPEKLTLEEARAYCQERGAEIATTGQLYAAWDGGLDHCSPGWLADGSVRYPIVTPSQRCGGGLPGVKTLFLFPNQTGFPNKHSRFNVYCFRDSAQPSAIPEASNPASNPASDGLEAIVTVTETLEELQLPQEATESESRGAIYSIPIMEDGGGGSSTPEDPAEAPRTLLEFETQSMVPPTGFSEEEGKALEEEEKYEDEEEKEEEEEEEEVEDEALWAWPSELSSPGPEASLPTEPAAQEESLSQAPARAVLQPGASPLPDGESEASRPPRVHGPPTETLPTPRERNLASPSPSTLVEAREVGEATGGPELSGVPRGESEETGSSEGAPSLLPATRAPEGTRELEAPSEDNSGRTAPAGTSVQAQPVLPTDSASRGGVAVVPASGDCVPSPCHNGGTCLEEEEGVRCLCLPGYGGDLCDVGLRFCNPGWDAFQGACYKHFSTRRSWEEAETQCRMYGAHLASISTPEEQDFINNRYREYQWIGLNDRTIEGDFLWSDGVPLLYENWNPGQPDSYFLSGENCVVMVWHDQGQWSDVPCNYHLSYTCKMGLVSCGPPPELPLAQVFGRPRLRYEVDTVLRYRCREGLAQRNLPLIRCQENGRWEAPQISCVPRRPARALHPEEDPEGRQGRLLGRWKALLIPPSSPMPGP | 3617 | 1786 | 364 | 9.85 | 0.51 | – | –
Vesicular integral-membrane protein VIP36 (protein, UniProt Q12907 45-356, looked up) Vesicular integral-membrane …: DITDGNSEHLKREHSLIKPYQGVGSSSMPLWDFQGSTMLTSQYVRLTPDERSKEGSIWNHQPCFLKDWEMHVHFKVHGTGKKNLHGDGIALWYTRDRLVPGPVFGSKDNFHGLAIFLDTYPNDETTERVFPYISVMVNNGSLSYDHSKDGRWTELAGCTADFRNRDHDTFLAVRYSRGRLTVMTDLEDKNEWKNCIDITGVRLPTGYYFGASAGTGDLSDNHDIISMKLFQLMVEHTPDEESIDWTKIEPSVNFLKSPKDNVDDPTGNFRSGPLTGWRVFLLLLCALLGIVVCAVVGAVVFQKRQERNKRFY | 689 | 356 | 107 | – | – | 0.62 | 4.42
WNT1-inducible-signaling pathway protein 3 (protein, UniProt O95389 24-354, looked up) Cellular communication …: TGPLDTTPEGRPGEVSDAPQRKQFCHWPCKCPQQKPRCPPGVSLVRDGCGCCKICAKQPGEICNEADLCDPHKGLYCDYSVDRPRYETGVCAYLVAVGCEFNQVHYHNGQVFQPNPLFSCLCVSGAIGCTPLFIPKLAGSHCSGAKGGKKSDQSNCSLEPLLQQLSTSYKTMPAYRNLPLIWKKKCLVQATKWTPCSRTCGMGISNRVTNENSNCEMRKEKRLCYIQPCDSNILKTIKIPKGKTCQPTFQLSKAEKFVFSGCSSTQSYKPTFCGICLDKRCCIPNKSKMITIQFDCPNEGSFKWKMLWITSCVCQRNCREPGDIFSELKIL | 194 | 123 | 63 | – | – | 0.70 | 2.78
X-linked interleukin-1 receptor accessory protein-like 2 (protein, UniProt Q9NP60 17-686, looked up) X-linked interleukin-1 …: TNLKMVSKRNSVDGCIDWSVDLKTYMALAGEPVRVKCALFYSYIRTNYSTAQSTGLRLMWYKNKGDLEEPIIFSEVRMSKEEDSIWFHSAEAQDSGFYTCVLRNSTYCMKVSMSLTVAENESGLCYNSRIRYLEKSEVTKRKEISCPDMDDFKKSDQEPDVVWYKECKPKMWRSIIIQKGNALLIQEVQEEDGGNYTCELKYEGKLVRRTTELKVTALLTDKPPKPLFPMENQPSVIDVQLGKPLNIPCKAFFGFSGESGPMIYWMKGEKFIEELAGHIREGEIRLLKEHLGEKEVELALIFDSVVEADLANYTCHVENRNGRKHASVLLRKKDLIYKIELAGGLGAIFLLLVLLVVIYKCYNIELMLFYRQHFGADETNDDNKEYDAYLSYTKVDQDTLDCDNPEEEQFALEVLPDVLEKHYGYKLFIPERDLIPSGTYMEDLTRYVEQSRRLIIVLTPDYILRRGWSIFELESRLHNMLVSGEIKVILIECTELKGKVNCQEVESLKRSIKLLSLIKWKGSKSSKLNSKFWKHLVYEMPIKKKEMLPRCHVLDSAEQGLFGELQPIPSIAMTSTSATLVSSQADLPEFHPSDSMQIRHCCRGYKHEIPATTLPVPSLGNHHTYCNLPLTLLNGQLPLNNTLKDTQEFHRNSSLLPLSSKELSFTSDIW | 347 | 224 | 112 | – | – | 0.70 | 2.77
ATP-dependent RNA helicase DDX19B (protein, UniProt Q9UMR2 2-479, looked up) ATP-dependent RNA helicase …: ATDSWALAVDEQEAAAESLSNLHLKEEKIKPDTNGAVVKTNANAEKTDEEEKEDRAAQSLLNKLIRSNLVDNTNQVEVLQRDPNSPLYSVKSFEELRLKPQLLQGVYAMGFNRPSKIQENALPLMLAEPPQNLIAQSQSGTGKTAAFVLAMLSQVEPANKYPQCLCLSPTYELALQTGKVIEQMGKFYPELKLAYAVRGNKLERGQKISEQIVIGTPGTVLDWCSKLKFIDPKKIKVFVLDEADVMIATQGHQDQSIRIQRMLPRNCQMLLFSATFEDSVWKFAQKVVPDPNVIKLKREEETLDTIKQYYVLCSSRDEKFQALCNLYGAITIAQAMIFCHTRKTASWLAAELSKEGHQVALLSGEMMVEQRAAVIERFREGKEKVLVTTNVCARGIDVEQVSVVINFDLPVDKDGNPDNETYLHRIGRTGRFGKRGLAVNMVDSKHSMNILNRIQEHFNKKIERLDTDDLDEIEKIAN | 220 | 116 | 55 | 3.17 | 0.63 | – | –
Vascular endothelial growth factor D (protein, UniProt O43915 89-205, looked up) Vascular endothelial growth …: FAATFYDIETLKVIDEEWQRTQCSPRETCVEVASELGKSTNTFFKPPCVNVFRCGGCCNEESLICMNTSTSYISKQLFEISVPLTSVPELVPVKVANHTGCKCLPTAPRHPYSIIRR | 296 | 144 | 61 | – | – | 0.54 | 4.24
Ubiquitin-conjugating enzyme E2 G2 (protein, UniProt P60604 2-165, looked up) Ubiquitin-conjugating enzyme …: AGTALKRLMAEYKQLTLNPPEGIVAGPMNEENFFEWEALIMGPEDTCFEFGVFPAILSFPLDYPLSPPKMRFTCEMFHPNIYPDGRVCISILHAPGDDPMGYESSAERWSPVQSVEKILLSVVSMLAEPNDESGANVDASKMWRDDREQFYKIAKQIVQKSLGL | 1599 | 890 | 355 | – | – | 0.62 | 4.04
Bone morphogenetic protein 7 (protein, UniProt P18075 293-431, looked up) Bone morphogenetic protein 7: STGSKQRSQNRSKTPKNQEALRMANVAENSSSDQRQACKKHELYVSFRDLGWQDWIIAPEGYAAYYCEGECAFPLNSYMNATNHAIVQTLVHFINPETVPKPCCAPTQLNAISVLYFDDSSNVILKKYRNMVVRACGCH | 66 | 50 | 32 | 1.90 | 0.80 | – | –
ATP synthase subunit O, mitochondrial (protein, UniProt P48047 24-213, looked up) ATP synthase peripheral stalk …: FAKLVRPPVQVYGIEGRYATALYSAASKQNKLEQVEKELLRVAQILKEPKVAASVLNPYVKRSIKVKSLNDITAKERFSPLTTNLINLLAENGRLSNTQGVVSAFSTMMSVHRGEVPCTVTSASPLEEATLSELKTVLKSFLSQGQVLKLEAKTDPSILGGMIVRIGEKYVDMSVKTKIQKLGRAMREIV | 469 | 325 | 331 | 1.47 | 0.70 | – | –
